# Values joined by “and” are separate entries in the source; they are usually repeats but may differ in a detail not shown here. Equal entries are not always repeated. Among all 400,000 compounds or so, about 3,700 (0.93%) were called active. The inconclusive results got no clear call from the source; some entries with a clear call stand among them for comparison. Calls follow the shape of the dose curve; as a rule, active = well fitted inhibition curve with a large enough effect; inconclusive = small, poorly fitted or top-dose-only effect, or another doubt; inactive = no such curve, though single readings can be large or run the other way. Potencies beside an inconclusive call are fits to weak or partial responses and may not hold up.
# The chains behind the UniProt entries cited, without tags or fusion partners. Where a name states a change or a piece, a line headed by the entry shows the natural chain unless it says otherwise.
# UniProt P11473: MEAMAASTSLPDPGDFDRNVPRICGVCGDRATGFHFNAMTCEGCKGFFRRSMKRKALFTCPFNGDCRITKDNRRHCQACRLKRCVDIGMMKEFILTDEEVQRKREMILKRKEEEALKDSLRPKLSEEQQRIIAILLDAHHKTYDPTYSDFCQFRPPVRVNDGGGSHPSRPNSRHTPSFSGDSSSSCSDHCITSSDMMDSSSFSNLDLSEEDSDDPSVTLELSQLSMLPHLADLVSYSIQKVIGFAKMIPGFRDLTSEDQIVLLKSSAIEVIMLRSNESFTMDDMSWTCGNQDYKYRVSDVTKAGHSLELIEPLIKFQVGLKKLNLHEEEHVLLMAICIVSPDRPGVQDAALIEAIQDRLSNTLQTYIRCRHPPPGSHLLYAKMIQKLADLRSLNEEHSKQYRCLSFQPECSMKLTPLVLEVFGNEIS
# Target: Vitamin D3 receptor (Homo sapiens) (UniProt P11473)
# Test: Inhibitors of the vitamin D receptor (VDR): qHTS
# Settings: VDR-SRC2-3 peptide fluorescence polarization, 2 h; max response, negative = inhibition: stronger effect = lower value
# Procedure, shortened: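 The screen uses fluorescence polarization to detect compounds that interfere with recruitment of the SRC2-3 coactivator peptide to VDR; plates are read after 2 h at room temperature.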
# % is scaled to controls: 0 for no effect and ±100 for the full control effect; potency is read from the fitted curve at half-maximal effect.
SMILES,"max response, negative = inhibition",Potency
COc1cc(Cl)c(C)cc1NC(=O)c1cnc(N2CCCCC2)c2ccccc12,inactive: 6.99%,–
COc1cccc(NC(=O)CN(C)S(=O)(=O)/C=C/c2ccccc2)c1,inactive: -3.73%,–
Cn1c(SCC(=O)c2ccc3c(c2)Cc2ccccc2-3)nnc1-c1ccccc1,inactive: -17.3%,–
O=C(O)/C=C/c1ccc(OCc2cccc(F)c2)cc1,–,"inconclusive: 79.4 µM [inhibitor, partial curve, poor fit]"
O=C(Nc1cc(S(=O)(=O)N2CCOCC2)ccc1N1CCCC1)c1ccc(Cl)cc1,–,"inconclusive: 50.1 µM [inhibitor, partial curve, poor fit]"
CCCC(C)c1nnc(NC(=O)CS(=O)(=O)Cc2ccccc2)s1 (centres undefined),–,"inconclusive: 22.4 µM [inhibitor, full curve]"
COc1cc(/C=C(\C#N)C(=O)Nc2ccccc2C(=O)O)cc(Cl)c1OC,–,"inconclusive: 56.2 µM [inhibitor, partial curve, poor fit]"
O=C(Nc1ccncc1)C1C(=O)c2ccccc2N(Cc2ccccc2)C1=O (centres undefined),–,"inconclusive: 79.4 µM [inhibitor, single point]"
CCCOc1ccccc1-n1sc2c(c1=S)-c1cc(OC)cc3c1N(C(=O)C3=O)C2(C)C,–,"inconclusive: 89.1 µM [inhibitor, single point]"
c1ccc(C2=Nc3ccccc3OC2)cc1,inactive: -0.616%,–
COC(=O)c1ccc(=O)n(Cc2ccco2)c1,–,"inconclusive: 89.1 µM [inhibitor, single point]"
Cc1ccc(C(=O)Nc2nncs2)cc1S(=O)(=O)N1CCOCC1,–,"inconclusive: 100 µM [inhibitor, single point]"
CCCCOC(=O)c1ccc(NC(=O)c2sc3nc(C)cc(C)c3c2N)cc1,inactive: -5.27%,–
Cc1[nH]c(=O)c(C#N)cc1-c1ccc2nccn2c1,inactive: -1.23% and inactive: 7.69% and inactive: -1.04%,–
COc1ccc(-c2nc(-c3ccccc3)oc2Nc2ccc3ccccc3c2)cc1,–,"inconclusive: 50.1 µM [inhibitor, partial curve, poor fit]"
CN(C)N1C(N)=C(C#N)C(c2ccccc2)C2=C1CC(C)(C)CC2=O (centres undefined),–,"inconclusive: 89.1 µM [inhibitor, single point]"
O=C(O)c1ccccc1N=Nc1ccc(O)cc1,–,"inconclusive: 79.4 µM [inhibitor, partial curve, poor fit]"
CC1=NN(c2ccccc2)C(=O)/C1=C\C=C\c1ccccc1,–,active: 39.8 µM
CCOc1ncccc1C(=O)Nc1ccc(OC)c(S(=O)(=O)N2CCOCC2)c1,–,"inconclusive: 89.1 µM [inhibitor, partial curve, poor fit]"
CN(C)c1ncc2nc(-c3ccc(Cl)cc3)c(=O)n(C[C@H]3CCCO3)c2n1,inactive: -8.87%,–
CC1CCc2c(sc3ncn(CC(=O)N4CCCCC4)c(=O)c23)C1 (centres undefined),–,"inconclusive: 100 µM [inhibitor, partial curve, poor fit]"
[O-]/[N+](=C/c1ccc(F)cc1)c1ccccc1,–,"inconclusive: 89.1 µM [inhibitor, single point]"

# A different layout for 13 compounds above:
SMILES	max response, negative = inhibition	Potency
Cn1c(SCC(=O)c2ccc3c(c2)Cc2ccccc2-3)nnc1-c1ccccc1	inactive: -17.3%	–
CCCC(C)c1nnc(NC(=O)CS(=O)(=O)Cc2ccccc2)s1 (centres undefined)	–	inconclusive: 22.4 µM [inhibitor, full curve]
COc1cc(/C=C(\C#N)C(=O)Nc2ccccc2C(=O)O)cc(Cl)c1OC	–	inconclusive: 56.2 µM [inhibitor, partial curve, poor fit]
O=C(Nc1ccncc1)C1C(=O)c2ccccc2N(Cc2ccccc2)C1=O (centres undefined)	–	inconclusive: 79.4 µM [inhibitor, single point]
c1ccc(C2=Nc3ccccc3OC2)cc1	inactive: -0.616%	–
COC(=O)c1ccc(=O)n(Cc2ccco2)c1	–	inconclusive: 89.1 µM [inhibitor, single point]
Cc1ccc(C(=O)Nc2nncs2)cc1S(=O)(=O)N1CCOCC1	–	inconclusive: 100 µM [inhibitor, single point]
CN(C)N1C(N)=C(C#N)C(c2ccccc2)C2=C1CC(C)(C)CC2=O (centres undefined)	–	inconclusive: 89.1 µM [inhibitor, single point]
O=C(O)c1ccccc1N=Nc1ccc(O)cc1	–	inconclusive: 79.4 µM [inhibitor, partial curve, poor fit]
CC1=NN(c2ccccc2)C(=O)/C1=C\C=C\c1ccccc1	–	active: 39.8 µM
CN(C)c1ncc2nc(-c3ccc(Cl)cc3)c(=O)n(C[C@H]3CCCO3)c2n1	inactive: -8.87%	–
CC1CCc2c(sc3ncn(CC(=O)N4CCCCC4)c(=O)c23)C1 (centres undefined)	–	inconclusive: 100 µM [inhibitor, partial curve, poor fit]
[O-]/[N+](=C/c1ccc(F)cc1)c1ccccc1	–	inconclusive: 89.1 µM [inhibitor, single point]

# Additional structures

SMILES,"max response, negative = inhibition",Potency
Cc1ccc(CCNC(=O)c2cc(S(=O)(=O)N3CCCC3)cn2C)cc1,–,"inconclusive: 79.4 µM [inhibitor, partial curve, poor fit]"
COC(=O)/C=C/C(C)=C/C=C/C(C)=C/C=C/C=C(C)/C=C/C=C(C)/C=C/C(=O)O,–,active: 89.1 µM
CC(C)CS(=O)(=O)C1=NSC2=NC(=O)/C(=C\c3ccc(OC(=O)c4ccco4)cc3)C(=N)N21,–,"inconclusive: 50.1 µM [inhibitor, partial curve, poor fit]"
Cc1cc(SC#N)cc(C)c1NC(=O)CCl,–,"inconclusive: 63.1 µM [inhibitor, partial curve, poor fit]"
COc1cc2c(cc1NCc1ccc3c(c1)OCO3)oc1ccccc12,inactive: 13.6%,–
CSC1=NC(=O)/C(=C\c2cccc3ccccc23)S1,–,active: 79.4 µM
Cc1cc(C)c(S(=O)(=O)Nc2nnc(C)s2)c(C)c1,–,"inconclusive: 5.62 µM [inhibitor, single point]"
CCCn1cnc2c(=S)nc(N)[nH]c21,inactive: 0.369%,–
CCCCNC(=O)O[C@@H]1C[C@H]2CCC(=O)N3CC[C@@H](C1)[C@@H]23,–,"inconclusive: 100 µM [inhibitor, single point]"
O=C(CN1C2=NCCCN2c2ccccc21)c1ccc(Br)s1,inactive: 21.9%,–
Cc1ccc(-c2csc(N3CCN(c4cc5c(cc4Cl)nc(C(C)N)n5CCCO)CC3)n2)cc1 (centres undefined),inactive: -0.542%,–
C/C(CCC(C)C)=N\Nc1cc(C)c2ccccc2n1,–,"inconclusive: 100 µM [inhibitor, single point]"
Cc1ccc(CSc2nnc(SCC(=O)N/N=C/C=C/c3ccco3)s2)cc1,inactive: -16.9%,–
COc1ccc(N2CCN(Cc3nc4c(c(=O)[nH]c(=O)n4C)n3Cc3ccccc3C)CC2)cc1,inactive: -19.6%,–
N#CC(C#N)=C(Nc1ccc(F)cc1)SCc1cccc(Br)c1,–,"inconclusive: 63.1 µM [inhibitor, partial curve, poor fit]"
CN(C)CCNC(=S)Nc1ccccc1C(C)(C)C,–,"inconclusive: 89.1 µM [inhibitor, single point]"
CCCC/C=C1/CCC(CN(C)C)C1=O (centres undefined),–,"inconclusive: 79.4 µM [inhibitor, partial curve, poor fit]"
CCC(=O)OCC(=O)Nc1ccc2c(c1)OCO2,–,"inconclusive: 89.1 µM [inhibitor, single point]"
O=[N+]([O-])c1ccc(S(=O)Cc2ccccc2)c([N+](=O)[O-])c1 (centres undefined),–,"inconclusive: 3.16 µM [inhibitor, full curve, poor fit]"
O=C(Nc1ccc(Cl)cc1Cl)c1ccc(Br)o1,inactive: -5.62%,–
NC1=NC(=Nc2ccccc2)c2ccccc21,–,"inconclusive: 22.4 µM [inhibitor, full curve]"
Cc1ccc(S(=O)(=O)N2CCN(c3nc(-c4cccs4)nc4nc[nH]c34)CC2)cc1,inactive: -14.3%,–
